Assay results taken from paper PMC8384837.
Numbering of substitutions follows the chain as printed. Some of the results follow. For some of these results: At the low end of the ranking, values are background and their order means little.

Assays:
Conditions in all cases: yeast three-hybrid, YBZ-1, SC-Leu-His + 0.5 mM 3-AT, 4 days
[1] = target: T1, PUM1 PUF domain R5-SGT C1007S + R1008G + Q1011T (UniProt Q14671)
T1 sequence: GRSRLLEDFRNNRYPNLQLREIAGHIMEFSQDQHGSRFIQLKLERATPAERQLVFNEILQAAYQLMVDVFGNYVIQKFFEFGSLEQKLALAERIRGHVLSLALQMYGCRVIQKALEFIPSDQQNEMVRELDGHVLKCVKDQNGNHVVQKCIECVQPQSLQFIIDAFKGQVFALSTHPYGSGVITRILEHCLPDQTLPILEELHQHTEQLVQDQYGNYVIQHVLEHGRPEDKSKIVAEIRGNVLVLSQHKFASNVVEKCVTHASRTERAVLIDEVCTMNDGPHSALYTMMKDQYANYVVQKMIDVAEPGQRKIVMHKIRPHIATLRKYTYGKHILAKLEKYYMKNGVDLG

[2] = target: T2, PUM1 PUF domain R5-SGV C1007S + R1008G + Q1011V (UniProt Q14671)
T2 sequence: T1 sequence with T184V

[3] = target: T3, PUM1 PUF domain R5-SIS C1007S + R1008I + Q1011S (UniProt Q14671)
T3 sequence: T1 sequence with G181I, T184S

[4] = target: T4, PUM1 PUF domain R5-SMG C1007S + R1008M + Q1011G (UniProt Q14671)
T4 sequence: T1 sequence with G181M, T184G

[5] = target: T5, PUM1 PUF domain R5-SMS C1007S + R1008M + Q1011S (UniProt Q14671)
T5 sequence: T1 sequence with G181M, T184S

[6] = target: T6, PUM1 PUF domain R5-SNG C1007S + R1008N + Q1011G (UniProt Q14671)
T6 sequence: T1 sequence with G181N, T184G

[7] = target: T7, PUM1 PUF domain R5-SNS C1007S + R1008N + Q1011S (UniProt Q14671)
T7 sequence: T1 sequence with G181N, T184S

[8] = target: T8, PUM1 PUF domain R5-SQA C1007S + R1008Q + Q1011A (UniProt Q14671)
T8 sequence: T1 sequence with G181Q, T184A

[9] = target: T9, PUM1 PUF domain R5-SQG C1007S + R1008Q + Q1011G (UniProt Q14671)
T9 sequence: T1 sequence with G181Q, T184G

[10] = target: T10, PUM1 PUF domain R5-SQS C1007S + R1008Q + Q1011S (UniProt Q14671)
T10 sequence: T1 sequence with G181Q, T184S

[11] = target: T11, PUM1 PUF domain R5-SRI C1007S + Q1011I (Homo sapiens) (UniProt Q14671)
T11 sequence: T1 sequence with G181R, T184I

[12] = target: T12, PUM1 PUF domain R5-SRL C1007S + Q1011L (Homo sapiens) (UniProt Q14671)
T12 sequence: T1 sequence with G181R, T184L

[13] = target: T13, PUM1 PUF domain R5-SRM C1007S + Q1011M (Homo sapiens) (UniProt Q14671)
T13 sequence: T1 sequence with G181R, T184M

[14] = target: T14, PUM1 PUF domain R5-SRT C1007S + Q1011T (UniProt Q14671)
T14 sequence: T1 sequence with G181R

[15] = target: T15, PUM1 PUF domain R5-SRV C1007S + Q1011V (Homo sapiens) (UniProt Q14671)
T15 sequence: T1 sequence with G181R, T184V

[16] = target: T16, PUM1 PUF domain R5-SVG C1007S + R1008V + Q1011G (UniProt Q14671)
T16 sequence: T1 sequence with G181V, T184G

[17] = target: T17, PUM1 PUF domain R5-SVS C1007S + R1008V + Q1011S (UniProt Q14671)
T17 sequence: T1 sequence with G181V, T184S

[18] = target: T18, PUM1 PUF domain R5-SVT C1007S + R1008V + Q1011T (Homo sapiens) (UniProt Q14671)
T18 sequence: T1 sequence with G181V

[19] = target: T19, PUM1 PUF domain R5-SVV C1007S + R1008V + Q1011V (UniProt Q14671)
T19 sequence: T1 sequence with G181V, T184V

[20] = target: T20, PUM1 PUF domain R5-TFY C1007T + R1008F + Q1011Y (UniProt Q14671)
T20 sequence: T1 sequence with S180T, G181F, T184Y

[21] = target: T21, PUM1 PUF domain R5-TNG C1007T + R1008N + Q1011G (UniProt Q14671)
T21 sequence: T1 sequence with S180T, G181N, T184G

[22] = target: T22, PUM1 PUF domain R5-TQG C1007T + R1008Q + Q1011G (UniProt Q14671)
T22 sequence: T1 sequence with S180T, G181Q, T184G

[23] = target: T23, PUM1 PUF domain R5-TRA C1007T + Q1011A (UniProt Q14671)
T23 sequence: T1 sequence with S180T, G181R, T184A

[24] = target: T24, PUM1 PUF domain R5-TRF C1007T + Q1011F (UniProt Q14671)
T24 sequence: T1 sequence with S180T, G181R, T184F

[25] = target: T25, PUM1 PUF domain R5-TRG C1007T + Q1011G (Homo sapiens) (UniProt Q14671)
T25 sequence: T1 sequence with S180T, G181R, T184G

[26] = target: T26, PUM1 PUF domain R5-TRK C1007T + Q1011K (Homo sapiens) (UniProt Q14671)
T26 sequence: T1 sequence with S180T, G181R, T184K

[27] = target: T27, PUM1 PUF domain R5-TRL C1007T + Q1011L (UniProt Q14671)
T27 sequence: T1 sequence with S180T, G181R, T184L

[28] = target: T28, PUM1 PUF domain R5-TRS C1007T + Q1011S (Homo sapiens) (UniProt Q14671)
T28 sequence: T1 sequence with S180T, G181R, T184S

[29] = target: T29, PUM1 PUF domain R5-TRV C1007T + Q1011V (Homo sapiens) (UniProt Q14671)
T29 sequence: T1 sequence with S180T, G181R, T184V

[30] = target: T30, PUM1 PUF domain R5-TRY C1007T + Q1011Y (UniProt Q14671)
T30 sequence: T1 sequence with S180T, G181R, T184Y

[31] = target: T31, PUM1 PUF domain R5-TYF C1007T + R1008Y + Q1011F (UniProt Q14671)
T31 sequence: T1 sequence with S180T, G181Y, T184F

[32] = target: T32, PUM1 PUF domain R5-VHL C1007V + R1008H + Q1011L (UniProt Q14671)
T32 sequence: T1 sequence with S180V, G181H, T184L

[33] = target: T33, PUM1 PUF domain R5-VNR C1007V + R1008N + Q1011R (Homo sapiens) (UniProt Q14671)
T33 sequence: T1 sequence with S180V, G181N, T184R

[34] = target: T34, PUM1 PUF domain R5-VRV C1007V + Q1011V (Homo sapiens) (UniProt Q14671)
T34 sequence: T1 sequence with S180V, G181R, T184V

[35] = target: T35, PUM1 PUF domain R5-VYF C1007V + R1008Y + Q1011F (UniProt Q14671)
T35 sequence: T1 sequence with S180V, G181Y, T184F

[36] = target: T36, PUM1 PUF domain R5-VYY C1007V + R1008Y + Q1011Y (UniProt Q14671)
T36 sequence: T1 sequence with S180V, G181Y, T184Y

[37] = target: T37, PUM1 PUF domain R5-WGF C1007W + R1008G + Q1011F (UniProt Q14671)
T37 sequence: T1 sequence with S180W, T184F

[38] = target: T38, PUM1 PUF domain R5-WRD C1007W + Q1011D (Homo sapiens) (UniProt Q14671)
T38 sequence: T1 sequence with S180W, G181R, T184D

[39] = target: T39, PUM1 PUF domain R5-WWA C1007W + R1008W + Q1011A (Homo sapiens) (UniProt Q14671)
T39 sequence: T1 sequence with S180W, G181W, T184A

[40] = target: T40, PUM1 PUF domain R5-YNG C1007Y + R1008N + Q1011G (UniProt Q14671)
T40 sequence: T1 sequence with S180Y, G181N, T184G

Work on “GGCUAGAACUAGUGGAUCCCCCGGCGCCCGGCGGCUCGAGCCCGGGUAAGUGUCAAUAGUCUGCAUGCCGCCGGGCGCCAUGCCUGCAGGUCGACUCUAGAAAACAUG” yielded a binding signal (log2 enrichment (interaction score)) [1] of -5.62, a binding signal (log2 enrichment (interaction score)) [2] of -2.93 and a binding signal (log2 enrichment (interaction score)) [3] of -8.21. For the same sequence, the binding signal (log2 enrichment (interaction score)) [4] was -2.65, the binding signal (log2 enrichment (interaction score)) [5] was under -7.64 and the binding signal (log2 enrichment (interaction score)) [6] was under -7.9. For the same sequence, the binding signal (log2 enrichment (interaction score)) [7] was -6.12, the binding signal (log2 enrichment (interaction score)) [8] was under -7.76 and the binding signal (log2 enrichment (interaction score)) [9] was -2.65. It also gave a binding signal (log2 enrichment (interaction score)) [10] of -7.12, a binding signal (log2 enrichment (interaction score)) [11] of -1.61 and a binding signal (log2 enrichment (interaction score)) [12] of -0.35. The binding signal (log2 enrichment (interaction score)) [13] was -0.5, the binding signal (log2 enrichment (interaction score)) [14] was -4.25 and the binding signal (log2 enrichment (interaction score)) [15] was -1.26. For the same sequence, the binding signal (log2 enrichment (interaction score)) [16] was -2.69, the binding signal (log2 enrichment (interaction score)) [17] was -4.52 and the binding signal (log2 enrichment (interaction score)) [18] was -3.39. For the same sequence, the binding signal (log2 enrichment (interaction score)) [19] was -3.33, the binding signal (log2 enrichment (interaction score)) [20] was under -7.75 and the binding signal (log2 enrichment (interaction score)) [21] was under -7.05. For the same sequence, the binding signal (log2 enrichment (interaction score)) [22] was -4.97, the binding signal (log2 enrichment (interaction score)) [23] was -2.4 and the binding signal (log2 enrichment (interaction score)) [24] was -2.09. The binding signal (log2 enrichment (interaction score)) [25] was 0.16, the binding signal (log2 enrichment (interaction score)) [26] was -0.52 and the binding signal (log2 enrichment (interaction score)) [27] was -4.25. It also gave a binding signal (log2 enrichment (interaction score)) [28] of -0.42, a binding signal (log2 enrichment (interaction score)) [29] of -1.42 and a binding signal (log2 enrichment (interaction score)) [30] of under -6.49. It also gave a binding signal (log2 enrichment (interaction score)) [31] of -4.82, a binding signal (log2 enrichment (interaction score)) [32] of under -6.18 and a binding signal (log2 enrichment (interaction score)) [33] of -0.56. It also gave a binding signal (log2 enrichment (interaction score)) [34] of -0.48, a binding signal (log2 enrichment (interaction score)) [35] of under -8.82 and a binding signal (log2 enrichment (interaction score)) [36] of under -7.38. It also gave a binding signal (log2 enrichment (interaction score)) [37] of under -7.56, a binding signal (log2 enrichment (interaction score)) [38] of 0.14 and a binding signal (log2 enrichment (interaction score)) [39] of 0.1. The binding signal (log2 enrichment (interaction score)) [40] was under -7.03.
